The text below walks through data of PMC9483116, “Deubiquitination of BES1 by UBP12/UBP13 promotes brassinosteroid signaling and plant growth” (Plant Communications, 2022).

By UniProt entry, the sequences of proteins in these tests, tags left out.
UniProt Q8S307: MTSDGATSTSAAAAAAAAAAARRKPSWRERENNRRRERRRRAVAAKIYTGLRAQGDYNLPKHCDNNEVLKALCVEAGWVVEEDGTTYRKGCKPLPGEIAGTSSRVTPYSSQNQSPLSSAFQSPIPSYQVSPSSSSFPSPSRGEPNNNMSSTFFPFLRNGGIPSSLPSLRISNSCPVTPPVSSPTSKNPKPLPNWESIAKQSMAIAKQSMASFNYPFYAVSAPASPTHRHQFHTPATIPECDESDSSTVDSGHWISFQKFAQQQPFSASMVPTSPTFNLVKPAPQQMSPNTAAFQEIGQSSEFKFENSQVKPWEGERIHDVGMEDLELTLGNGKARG

In test [1] the target is T1, UBP12-cYFP (Arabidopsis thaliana) (UniProt Q9FPT1).
T1 sequence: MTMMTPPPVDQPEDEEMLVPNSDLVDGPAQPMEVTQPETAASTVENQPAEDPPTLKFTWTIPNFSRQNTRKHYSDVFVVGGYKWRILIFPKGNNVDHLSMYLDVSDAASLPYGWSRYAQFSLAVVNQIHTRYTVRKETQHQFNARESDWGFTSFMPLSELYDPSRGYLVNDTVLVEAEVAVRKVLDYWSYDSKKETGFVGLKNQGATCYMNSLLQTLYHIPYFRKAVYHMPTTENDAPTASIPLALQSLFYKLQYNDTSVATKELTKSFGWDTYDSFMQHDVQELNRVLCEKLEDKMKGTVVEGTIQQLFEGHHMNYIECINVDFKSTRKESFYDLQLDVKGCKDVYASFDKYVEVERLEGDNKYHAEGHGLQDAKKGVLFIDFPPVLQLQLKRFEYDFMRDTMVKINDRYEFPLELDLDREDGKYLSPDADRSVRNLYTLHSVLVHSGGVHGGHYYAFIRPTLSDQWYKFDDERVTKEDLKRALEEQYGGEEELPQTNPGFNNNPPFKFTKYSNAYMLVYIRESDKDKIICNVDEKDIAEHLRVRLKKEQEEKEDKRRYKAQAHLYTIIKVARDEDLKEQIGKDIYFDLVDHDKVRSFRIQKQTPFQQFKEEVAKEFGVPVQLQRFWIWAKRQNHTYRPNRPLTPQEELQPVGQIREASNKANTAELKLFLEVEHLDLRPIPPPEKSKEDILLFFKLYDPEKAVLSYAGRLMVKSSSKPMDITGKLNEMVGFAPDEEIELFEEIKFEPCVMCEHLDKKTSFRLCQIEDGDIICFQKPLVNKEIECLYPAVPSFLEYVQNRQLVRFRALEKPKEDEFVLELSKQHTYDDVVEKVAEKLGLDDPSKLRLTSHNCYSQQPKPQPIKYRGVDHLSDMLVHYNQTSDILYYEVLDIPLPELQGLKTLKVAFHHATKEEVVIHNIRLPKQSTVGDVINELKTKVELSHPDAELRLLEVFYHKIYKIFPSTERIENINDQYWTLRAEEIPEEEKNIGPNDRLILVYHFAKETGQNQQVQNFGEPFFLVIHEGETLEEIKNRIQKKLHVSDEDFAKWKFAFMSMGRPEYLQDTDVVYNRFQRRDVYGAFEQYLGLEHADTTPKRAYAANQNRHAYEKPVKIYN
The experiment in a line: split reporter; BiFC (split YFP) in N. benthamiana leaves infiltrated with Agrobacterium; confocal images 3 days after infiltration; with mCherry-NLS.

Test [2] addresses T2, UBP13-cYFP (Arabidopsis thaliana) (UniProt Q84WU2).
T2 sequence: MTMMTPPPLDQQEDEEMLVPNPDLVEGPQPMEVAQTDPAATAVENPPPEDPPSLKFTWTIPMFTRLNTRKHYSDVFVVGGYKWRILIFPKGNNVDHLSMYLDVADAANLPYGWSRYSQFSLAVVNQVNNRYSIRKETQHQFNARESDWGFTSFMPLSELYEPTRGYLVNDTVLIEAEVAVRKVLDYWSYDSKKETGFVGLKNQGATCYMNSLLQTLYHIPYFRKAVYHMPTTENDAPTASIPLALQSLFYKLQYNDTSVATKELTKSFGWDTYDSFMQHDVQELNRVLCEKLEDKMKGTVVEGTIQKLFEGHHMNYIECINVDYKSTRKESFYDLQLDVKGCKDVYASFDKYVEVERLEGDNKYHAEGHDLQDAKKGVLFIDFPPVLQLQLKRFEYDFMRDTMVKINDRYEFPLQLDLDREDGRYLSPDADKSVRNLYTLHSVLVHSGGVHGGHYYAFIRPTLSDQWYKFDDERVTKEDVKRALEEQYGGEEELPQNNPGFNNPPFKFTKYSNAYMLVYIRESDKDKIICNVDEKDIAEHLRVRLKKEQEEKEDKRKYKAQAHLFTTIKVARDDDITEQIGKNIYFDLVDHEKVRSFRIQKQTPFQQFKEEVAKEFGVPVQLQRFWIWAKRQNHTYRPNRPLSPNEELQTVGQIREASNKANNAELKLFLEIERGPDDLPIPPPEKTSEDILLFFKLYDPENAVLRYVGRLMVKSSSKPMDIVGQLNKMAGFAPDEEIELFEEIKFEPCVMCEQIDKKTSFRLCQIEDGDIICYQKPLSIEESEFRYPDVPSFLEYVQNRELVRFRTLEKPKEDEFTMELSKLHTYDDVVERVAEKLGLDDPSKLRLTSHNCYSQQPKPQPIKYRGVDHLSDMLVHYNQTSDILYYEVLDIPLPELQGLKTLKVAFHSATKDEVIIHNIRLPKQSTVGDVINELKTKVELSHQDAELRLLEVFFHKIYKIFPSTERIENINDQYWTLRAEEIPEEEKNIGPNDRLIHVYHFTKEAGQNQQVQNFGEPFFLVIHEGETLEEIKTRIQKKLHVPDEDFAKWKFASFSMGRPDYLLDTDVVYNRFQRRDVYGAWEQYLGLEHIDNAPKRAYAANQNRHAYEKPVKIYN
The description is as above.

The target in test [3] is T3, UBP12-HA (Arabidopsis thaliana) (UniProt Q9FPT1).
T3 sequence: T1 sequence
In words: co-IP; extracts of 7-day-old 35S:BES1-myc/UBQ10:UBP12-HA seedlings treated with 50 uM MG132 with or without 1 uM eBL for 6 h; 50 mM Tris-HCl pH 7.4, 100 mM NaCl, 0.2% Triton X-100, 1 mM DTT; IP with anti-HA or anti-myc and protein A-agarose, blot with anti-myc or anti-HA.

Test [4] has as its target T4, GST-UBP12 (full-length) (Arabidopsis thaliana, UniProt Q9FPT1 1-1116).
T4 construct: UBP12 (ubiquitin-specific protease 12), Arabidopsis thaliana, At5g06600; full length (1-1116 by the limits printed for its N and C derivatives); not shown: GST, N-terminal, kept
T4 sequence (looked up): T1 sequence
The experiment in a line: pull-down; semi-in vivo; resin-bound GST or GST-UBP12 incubated at 4°C for 2 h with total protein extracts of 7-day-old 35S:BES1-myc seedlings treated with or without 1 uM eBL for 6 h; 100 mM Tris-HCl pH 7.5, 300 mM NaCl, 2 mM EDTA, 1% Triton X-100, 10% glycerol; anti-myc blot; only the target purified.

In test [5] the target is BES1-myc (dephosphorylated BES1-myc) (Arabidopsis thaliana) (UniProt Q9LN63). In words: co-IP; extracts of 7-day-old 35S:BES1-myc/UBQ10:UBP12-HA seedlings treated with 50 uM MG132 with or without 1 uM eBL for 6 h; 50 mM Tris-HCl pH 7.4, 100 mM NaCl, 0.2% Triton X-100, 1 mM DTT; IP with anti-HA or anti-myc and protein A-agarose, blot with anti-myc or anti-HA.
The target in test [6] is T4, GST-UBP12 (full-length). The experiment in a line: pull-down; in vitro; GST-tagged proteins bound to glutathione resin as bait, MBP-tagged proteins incubated with them; about 2 ug of each protein; immunoblot with anti-myc or anti-MBP; both purified. For orientation: In western blotting, separated proteins are transferred to a membrane and probed.
The next test has as its target T5, GST-UBP13 (full-length) (Arabidopsis thaliana, UniProt Q84WU2 1-1115).
T5 construct: UBP13 (ubiquitin-specific protease 13), Arabidopsis thaliana, At3g11910; full length
T5 sequence (looked up): T2 sequence
The test is described as above.

Results are given in words; binding and its absence hold for the method and conditions named. For some assays here: In cells and extracts the contact can be indirect. Some results given as binding are weak or reduced against the parent protein; the word gives no strength. Where a sequence is shown, tags or fusion partners need not be part of it.

As to nYFP-BES1 (from UniProt Q9LN63 1-335), the binding entry in test [1] and in test [2] was “binds” throughout.

As to “pBES1-myc (phosphorylated BES1-myc) (from UniProt Q9LN63 1-335)”, the binding entry (in test [3]; in the test with GST-UBP12 (full-length) [4]) was “binds” in each case.

Regarding “BES1-myc (dephosphorylated BES1-myc) (from UniProt Q9LN63 1-335)”, the binding entry (in test [3]; with GST-UBP12 (full-length) [4]) was “binds” throughout.

Take “BZR1 (BiFC construct) (from UniProt Q8S307 1-336)”: the binding result in test [1] and in test [2] was “binds” throughout.

B1: UBP12-HA (enzyme, UniProt Q9FPT1 1-1116)
chain: T1 sequence
Take B1: the binding entry in test [5] is on record as “binds”.

B2: BES1 fragment containing amino acids 99–164 (truncated form of MBP-BES1) (domain or fragment, UniProt Q9LN63 99-164)
chain: GSSSRATPYSSHNQSPLSSTFDSPILSYQVSPSSSSFPSPSRVGDPHNISTIFPFLRNGGIPSSLP
B2: the binding entry with GST-UBP12 (full-length) [6] and with GST-UBP13 (full-length) was “binds” each time.
